Measurements reported in PubChem BioAssay AID540256 (National Center for Advancing Translational Sciences (NCATS), 2011).
Hit rate of the full screen: of about 300,000 compounds, about 3,700 (1.2%) were called active. Inconclusive results, whose numbers are uncertain, are shown with a selection of clear calls. Calls follow the shape of the full dose curve; tested in HEK293 cells. Potencies beside an inconclusive call are fits to weak or partial responses and may not hold up.
Potency is read from the fitted curve at half-maximal effect.

Assay: qHTS for Inhibitors of binding or entry into cells for Lassa Virus; also: nearly all actives have a fitted effect of over 50% in size
Details: Lassa virus pseudotype entry inhibition, cell reporter; series mostly up to 37.9 µM
With `C=CCn1c(SCC(=O)NC2CCCCC2)nnc1-c1ccc(OC)cc1` the Potency was inconclusive: 8.91 µM [inhibitor, partial curve, poor fit]. For `N#Cc1sc2nc(N3CCCCC3)c3c(c2c1N)CCCC3`, the Potency was inconclusive: 11.2 µM [inhibitor, partial curve, poor fit]. With `O=C(Nc1cccc(C(=O)O)c1)/C(=C\c1ccc2c(c1)OCO2)NC(=O)c1ccc(Br)o1` the Potency was “inactive”. In the case of `O=C(NNC(=S)Nc1ccccc1Cl)c1ccccc1`, the Potency is reported as “inactive”. For `Cc1nc2ccc(S(=O)(=O)NCC(=O)N3CCN(c4ccccn4)CC3)cc2s1`, the Potency was inconclusive: 35.5 µM [inhibitor, single point]. With `Cn1cnc2c(=O)oc3ccc(S(=O)(=O)N4CCN(c5ccccc5F)CC4)cc3c21` the Potency was inconclusive: 22.4 µM [inhibitor, single point]. For `COc1cccc(NC(=O)Cn2nnc(C(=O)NCCc3ccccc3)c2N)c1`, the Potency was “inactive”. With `CC1CN(S(=O)(=O)c2cccc(C(=O)Nc3ccccc3N3CCOCC3)c2)CC(C)O1` (stereo unspecified) the Potency was “inactive”. For `O=C(Nc1cccc(C(=O)OCc2cc(=O)n3c4c(sc3n2)CCCC4)c1)c1cccc(Cl)c1`, the Potency was inconclusive: 6.31 µM [inhibitor, single point]. For `CCC(C)(C)NC(=O)C(c1ccncc1)N(Cc1ccc(C)cc1)C(=O)c1csnn1` (stereo unspecified), the Potency was “inactive”. For `CCOC(=O)CSc1nnc2c3ccccc3n(C)c2n1`, the Potency was inconclusive: 6.31 µM [inhibitor, single point]. With `CCOC(=O)c1ccc2c(c1)nc(SCC(=O)N1CCCCC1)n2CC` the Potency was “inactive”. In the case of `O=C(COc1ccc(Cl)cc1Cl)NCCCn1ccnc1`, the Potency is reported as “inactive”. In the case of `CCOC(=O)/C(=C\Nc1ccc(OC(F)(F)F)cc1)Sc1ncc(C(F)(F)F)cc1Cl`, the Potency is reported as “inactive”. With `Cc1cc(C(=O)C(=O)Nc2nnc(C(C)C)s2)c(C)n1-c1ccccc1` the Potency was “inactive”. For `COC(=O)N/N=C/c1cn(CC(C)COc2ccccc2)c2ccccc12` (stereo unspecified), the Potency was inconclusive: 29.1 µM [inhibitor, single point]. In the case of `CC(C)(C)S(=O)(=O)c1cnc2c(-c3ccc(Cl)cc3)cnn2c1N`, the Potency is reported as inconclusive: 29.1 µM [activator, single point]. In the case of `COC(=O)CSc1ncc2c(n1)-c1ccccc1N(Cc1cccc(F)c1)S2(=O)=O`, the Potency is reported as inconclusive: 35.5 µM [activator, single point]. For `Cc1cc(-c2cccs2)c2c(n1)sc1c(=O)[nH]c(=O)[nH]c12`, the Potency was inconclusive: 3.26 µM [activator, partial curve, poor fit]. With `COc1ccc2ccccc2c1CNC(=O)CC1C(=O)NCCN1CC(C)C` (stereo unspecified) the Potency was “inactive”. With `CCCOC(=O)c1ccc(-c2ccc(C=O)o2)cc1` the Potency was inconclusive: 35.5 µM [inhibitor, single point]. With `CCOC(=O)N1CCC(N2Cc3cccc(C(=O)N4CCN(c5cccc(C)c5C)CC4)c3C2=O)CC1` the Potency was “inactive”. In the case of `CCCNC(=O)CSc1nnc(-c2ccccc2Br)n1-c1cccc(C(F)(F)F)c1`, the Potency is reported as inconclusive: 5.62 µM [inhibitor, full curve, poor fit]. In the case of `CCn1c(=O)c(C(=O)Nc2ccccn2)c(O)c2ccccc21`, the Potency is reported as “inactive”. With `COc1cc(NC(=O)COC(=O)c2[nH]c(C)c(C(C)=O)c2C)cc(OC)c1` the Potency was “inactive”. In the case of `CC(C)[C@H](NC(=O)c1cccc(S(=O)(=O)N2CCOCC2)c1)C(=O)Nc1nccs1`, the Potency is reported as “inactive”. With `Cc1cccc2cc(C#N)c(NCCNC(=O)NC3CCCCC3)nc12` the Potency was inconclusive: 29.1 µM [inhibitor, single point]. In the case of `O=C(CN1CCOCC1)Nc1nc2ccc([N+](=O)[O-])cc2s1`, the Potency is reported as inconclusive: 1.41 µM [inhibitor, partial curve, poor fit]. For `CCOc1cccc(OCCCn2c(-c3ccc(Br)cc3)nc3ccccc3c2=O)c1`, the Potency was “inactive”. With `Cc1noc(C)c1COc1ccc(C(=O)N2CCCC(C(F)(F)F)C2)cc1` (stereo unspecified) the Potency was “inactive”. In the case of `C=C(C)CNC(=S)N/N=C(\C)c1ccc(OC)cc1`, the Potency is reported as inconclusive: 9.2 µM [inhibitor, partial curve]. In the case of `CC(C)CCNC(=O)C(C)N(C(=O)c1snc(C(N)=O)c1N)c1cnc2ccccc2c1` (stereo unspecified), the Potency is reported as inconclusive: 11.2 µM [inhibitor, partial curve, poor fit]. In the case of `O=[N+]([O-])c1cc(-c2nnc(Nc3ccc(O)cc3)c3ccccc23)ccc1N1CCOCC1`, the Potency is reported as inconclusive: 35.5 µM [inhibitor, single point]. With `COc1ccc(Nc2oc(-c3ccccc3F)nc2C#N)cc1` the Potency was “inactive”. With `C[n+]1ccc(/C=C/c2ccc(Br)cc2)cc1` the Potency was “inactive”. With `CCOc1ccccc1N(CC(=O)Nc1cccc(OC)c1)S(=O)(=O)c1ccccc1` the Potency was inconclusive: 25.1 µM [inhibitor, single point]. For `Oc1ccc2ccccc2c1CN1CCN(C/C=C/c2ccccc2)CC1`, the Potency was “inactive”. In the case of `Cc1ccc(NS(=O)(=O)c2ccc(C(=O)N3CCN(c4ncccn4)CC3)cc2)cc1`, the Potency is reported as active: 7.94 µM. For `O=C(NC(NC(=S)Nc1ccc(Cl)c(Cl)c1)C(Cl)(Cl)Cl)c1ccco1` (stereo unspecified), the Potency was inconclusive: 35.5 µM [inhibitor, single point]. For `COc1ccc(N2CCc3c(C)nc4c(OC)cc(OC)cc4c32)cc1`, the Potency was inconclusive: 12.6 µM [inhibitor, partial curve]. With `Cc1ccc(Cl)cc1N1CCN(C(=O)CCCCCn2c(=O)[nH]c3ccccc3c2=O)CC1` the Potency was inconclusive: 11.2 µM [inhibitor, partial curve, poor fit]. For `CN1CCN(CCNC(=O)Nc2ccc(Cl)cc2)CC1`, the Potency was inconclusive: 20 µM [activator, partial curve, poor fit]. With `CC(C)=CC(=O)OCC(=O)Nc1cc(C)ccc1C` the Potency was inconclusive: 0.501 µM [inhibitor, partial curve, poor fit]. In the case of `O=C(COC(=O)c1cccs1)c1ccc2ccccc2c1`, the Potency is reported as “inactive”. In the case of `Cc1ccc(C(C)C)c(OCC(=O)NCC(c2cccs2)N2CCOCC2)c1` (stereo unspecified), the Potency is reported as inconclusive: 35.5 µM [inhibitor, partial curve, poor fit]. With `O=S(=O)(/N=C(/NC(=S)Nc1ccccc1)c1ccccc1)c1ccc(Cl)cc1` the Potency was inconclusive: 35.5 µM [inhibitor, single point]. With `O=C(C(=O)N1CCCCCC1)c1c[nH]c2ccccc12` the Potency was “inactive”. With `CN(C)S(=O)(=O)c1ccc(C(=O)NCC(=O)N/N=C/c2ccccc2Cl)cc1` the Potency was inconclusive: 11.2 µM [inhibitor, single point]. In the case of `CNC(=O)c1sc(-c2cccnc2)nc1C`, the Potency is reported as inconclusive: 18.3 µM [activator, partial curve, poor fit]. For `COc1ccc(NC(=O)c2cc(-c3ccccn3)nc3ccccc23)c(OC)c1`, the Potency was inconclusive: 35.5 µM [inhibitor, single point]. With `CCOc1ccc(NC(=O)CN(C)c2nnnn2-c2ccccc2)cc1OCC` the Potency was inconclusive: 29.1 µM [inhibitor, single point]. With `Cc1cc(/C=C2\C(=O)NC(=S)N(C)C2=O)c(C)n1C1CCCCC1` the Potency was “inactive”. With `Fc1ccc(-c2nnc(SCc3cccnc3)o2)cc1` the Potency was “inactive”. For `CCC(C)NCCCOc1c(C)cc(C)cc1Br` (stereo unspecified), the Potency was inconclusive: 16.4 µM [inhibitor, single point]. In the case of `Cc1cccc(C(=O)Nc2ccc(OCc3cc(=O)n4ccsc4n3)cc2)c1`, the Potency is reported as “inactive”. In the case of `Cc1cc(C(=O)COc2ccccc2[N+](=O)[O-])c(C)n1-c1cccc(S(=O)(=O)N2CCOCC2)c1`, the Potency is reported as active: 6.31 µM. With `CCCCn1c(NC(=O)c2ccccc2)c(C#N)c2nc3ccccc3nc21` the Potency was inconclusive: 23.1 µM [inhibitor, partial curve, poor fit]. With `O=C(COC(=O)c1ccccc1)c1ccc(S(=O)(=O)N2CCCCC2)cc1` the Potency was “inactive”. With `COc1ccc(CCNc2ccc(S(=O)(=O)N3CCCC3)cc2[N+](=O)[O-])cc1` the Potency was inconclusive: 2.24 µM [inhibitor, partial curve]. For `Cc1cc(-n2c(C)cc(C(=O)COC(=O)CN=C3NS(=O)(=O)c4ccccc43)c2C)no1`, the Potency was inconclusive: 0.708 µM [activator, single point]. For `CC(C)(c1ccccc1)c1ccc(OCc2ccc(C(=O)O)o2)cc1`, the Potency was inconclusive: 3.16 µM [activator, partial curve]. With `CCN(Cc1nc(-c2cccc(Cl)c2)no1)CC1CCCO1` (stereo unspecified) the Potency was “inactive”. In the case of `CC(C)(C)c1ccc(CSc2nnc(-c3ccccn3)n2Cc2ccco2)cc1`, the Potency is reported as “inactive”. In the case of `CCOC(=O)C1=C(C)N=c2s/c(=C\c3ccc(OCC(=O)O)cc3)c(=O)n2C1c1ccc(OC(C)C)cc1` (stereo unspecified), the Potency is reported as “inactive”. For `C=CCNC(=O)CC(=O)N/N=C/c1ccc(F)cc1`, the Potency was inconclusive: 3.66 µM [inhibitor, single point]. In the case of `CCOC(=O)c1cnc2ccccc2c1Nc1cccc(OC)c1`, the Potency is reported as “inactive”. For `O=C(CCCOC(=O)c1ccc(O)cc1)c1ccccc1`, the Potency was inconclusive: 6.31 µM [inhibitor, full curve, poor fit]. In the case of `COc1ccccc1N1CCN(C(=O)c2cnc(N3CCCCC3)c3ccccc23)CC1`, the Potency is reported as inconclusive: 10 µM [inhibitor, partial curve, poor fit]. With `Cn1c(=O)n(CCc2ccccc2)c(=O)c2c1nc1n2CCCN1Cc1ccccc1` the Potency was active: 15.8 µM. For `Cc1ccc(-c2nnc(SCC(=O)NCc3ccccc3)nc2-c2ccc(C)cc2)cc1`, the Potency was inconclusive: 1.41 µM [inhibitor, partial curve, poor fit]. With `CNS(=O)(=O)c1cc(-c2nnc(Nc3cc(C)ccc3C)c3ccccc23)ccc1C` the Potency was inconclusive: 14.1 µM [inhibitor, single point].
